Data reported in US20120301510A1, “TOLEROGENIC SYNTHETIC NANOCARRIERS COUPLED TO CD1D-RESTRICTED ANTIGENS AND METHODS OF USE” (Selecta Biosciences, Inc., priority 2011, published 2012).
At least one compound was matched to its structure with a doubt left.

System: iNKT cells
Assay: iNKT cell activation in mice after injection of aGC and/or rapamycin, soluble or in nanocarriers (flow cytometry of liver lymphocytes)
Format: in vivo
Conditions: FIG. 2
Method: Mice were designated to groups that received PBS alone, soluble aGC, NPaGC, sol aGC+solRAPA, sol aGC+NP RAPA, NPaGC+solRAPA or NPaGC+NP RAPA. Mice were injected at 9 am and at 9.30 AM received BrefeldinA i.v. to prevent release of intracellular cytokines produced. At 1 pm, mice were sacrificed and the liver was perfused with PBS and processed to obtain a single cell suspension enriched for lymphocytes. Cells were stained with cell surface markers for iNKT cells (agc-loaded CD1d tetramers) and T cells receptor (TCRb) and activation marker CD69. The cell suspension was then permeabilized and intracellular cytokine staining was performed for Th1 cytokine IFN-γ, and Th2 cytokines IL-4 and the anti-inflammatory cytokine IL-10. Cells were acquired on a FacsCanto flow cytometer and analyzed on by FlowJo.

Question: `CO[C@H]1C[C@@H]2CC[C@@H](C)[C@@](O)(O2)C(=O)C(=O)N2CCCC[C@H]2C(=O)O[C@H]([C@H](C)C[C@@H]2CC[C@@H](O)[C@H](OC)C2)CC(=O)[C@H](C)/C=C(\C)[C@@H](O)[C@@H](OC)C(=O)[C@H](C)C[C@H](C)/C=C/C=C/C=C/1C` [RAPA, Rapamycin] was tested. Which “CD69 expression (activation marker) on iNKT cells” value did it give?
Answer: downregulation of CD69
